# Measurements reported in the supplement of paper PMC8104966.
# The other results are listed elsewhere or left out. Single values are uncertain here, since repeats match poorly.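 Fusion between ACE2-bearing and full-length-spike-bearing U2OS cells was measured by imaging as the percentage of nuclei with both cell types' fluorescent markers. An inhibitory hit is a non-toxic compound whose fusion z-score is below -3, more than three standard deviations beneath the plate's DMSO wells.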
# System: U2OS ACE2 x SARS-CoV-2 spike co-culture
# Experiment: cell-cell fusion (fraction fused) z-score vs plate DMSO control; higher = more fusion
# Conditions: 30 µM; 5 h; toxicity class: non-toxic, passed QC
row,SMILES,cell-cell fusion (z-score)
1,CN1CCC(=C2c3ccccc3C=Cc3ccccc32)CC1.Cl,inactive: 2.57
2,CN1CCC(=C2c3ccccc3C=Cc3ccccc32)CC1.Cl [Cyproheptadine hydrochloride],inactive: 2.87
3,COCC(=O)O[C@]1(CCN(C)CCCc2nc3ccccc3[nH]2)CCc2cc(F)ccc2[C@@H]1C(C)C.Cl.Cl [Mibefradil dihydrochloride],inactive: -0.44
4,CCOC(N)=O,inactive: 2.09
5,CN(C)CCCN1c2ccccc2Sc2ccccc21.Cl,inactive: -0.115
6,Nc1cc(C(Cl)=C(Cl)Cl)c(S(N)(=O)=O)cc1S(N)(=O)=O,inactive: 1.82
7,O.O=c1ccc2cc(O[C@@H]3O[C@H](CO)[C@@H](O)[C@H](O)[C@H]3O)c(O)cc2o1,inactive: 1.75
8,Cc1c(O)c(O)cc2c1CC=C1[C@@]2(C)CC[C@@]2(C)C3C[C@](C)(C(=O)O)CC[C@]3(C)CC[C@]12C (stereo partly drawn),inactive: 2.11
9,C=CC1=C(C)/C(=C/c2[nH]c(Cc3[nH]c(/C=C4\NC(=O)C(C)=C4C=C)c(C)c3CCC(=O)O)c(CCC(=O)O)c2C)NC1=O,inactive: 2.53
10,CC(C)(CCP(=O)(O)O)C(=O)O.Cl [(S)-MAP4 hydrochloride],inactive: 1.57
11,C[C@H](N)C(=O)O [alanine],inactive: 1.85
12,CC(=O)Nc1ccc(S(=O)(=O)c2ccc(NC(C)=O)cc2)cc1,inactive: 1.97
13,O=C(NC1CCNCC1)c1n[nH]cc1NC(=O)c1c(Cl)cccc1Cl,inactive: 1.15
14,O=C(O)CCC(=O)O.O=C(O[C@H]1CN2CCC1CC2)N1CCc2ccccc2[C@@H]1c1ccccc1 [Solifenacin succinate],inactive: 0.59
15,O=c1ccc2ccc(O)cc2o1,inactive: 3.98
16,O=C(O)/C=C\C(=O)O.O=C(O)/C=C\C(=O)O.c1cc(CN2CCCCC2)cc(OCCCNc2nc3ccccc3s2)c1,active: -7.37
17,O=C(O[C@@H]1Cc2c(O)cc(O)cc2O[C@@H]1c1ccc(O)c(O)c1)c1cc(O)c(O)c(O)c1,inactive: 3.59
18,CC(=O)N1CCN(c2ccc(OCC3CO[C@](Cn4ccnc4)(c4ccc(Cl)cc4Cl)O3)cc2)CC1 (stereo partly drawn),inactive: 0.441
19,COC1=CC(=O)C[C@@H](C)[C@]12Oc1c(Cl)c(OC)cc(OC)c1C2=O [Griseofulvin],inactive: 1.66
20,Cc1ccc(/C(=C\CN2CCCC2)c2cccc(/C=C/C(=O)O)n2)cc1 [Acrivastine],inactive: 2.03
21,O=C(CCc1ccc(O)cc1)c1c(O)cc(O)cc1O[C@@H]1O[C@H](CO)[C@@H](O)[C@H](O)[C@H]1O,inactive: 2.28
22,"CCCCCCCCCCC/C=C\C(C)(C)/C=C\CCCC(=O)O [7,7-Dimethyl-(5Z,8Z)-eicosadienoic acid]",inactive: 0.386
23,O=C(O)CCCc1ccc(N(CCCl)CCCl)cc1 [Chloroambucil],inactive: 2.02
24,CCCCCCc1ccc(O)cc1O,inactive: -0.293
25,CC(C(=O)O)c1cccc(CC2CCCC2=O)c1 (stereo not drawn),inactive: 1.37

# Some of the entries so far, as tab-separated lines.
row	SMILES	cell-cell fusion (z-score)
2	CN1CCC(=C2c3ccccc3C=Cc3ccccc32)CC1.Cl [Cyproheptadine hydrochloride]	inactive: 2.87
8	Cc1c(O)c(O)cc2c1CC=C1[C@@]2(C)CC[C@@]2(C)C3C[C@](C)(C(=O)O)CC[C@]3(C)CC[C@]12C (stereo partly drawn)	inactive: 2.11
17	O=C(O[C@@H]1Cc2c(O)cc(O)cc2O[C@@H]1c1ccc(O)c(O)c1)c1cc(O)c(O)c(O)c1	inactive: 3.59

# The results go on:

row,SMILES,cell-cell fusion (z-score)
1,CC[C@@H](CO)NCCN[C@@H](CC)CO.Cl.Cl,inactive: 1.71
2,CC[C@@H](CO)NCCN[C@@H](CC)CO.Cl.Cl [Ethambutol dihydrochloride],inactive: 2.64
3,NCCO.O=c1oc2ccccc2c(O)c1Cc1c(O)c2ccccc2oc1=O,inactive: 2.65
4,CCCc1nn(C)c2c(=O)[nH]c(-c3cc(S(=O)(=O)N4CCN(C)CC4)ccc3OCC)nc12.O=C(O)CC(O)(CC(=O)O)C(=O)O [Sildenafil],inactive: 2.43
5,CCCc1nn(C)c2c(=O)[nH]c(-c3cc(S(=O)(=O)N4CCN(C)CC4)ccc3OCC)nc12.O=C(O)CC(O)(CC(=O)O)C(=O)O,inactive: 4.35
6,CC(=O)Oc1ccccc1C(=O)O [Acetylsalicylic acid],inactive: 1.56
7,CC(=O)Oc1ccccc1C(=O)O,inactive: 1.08
8,"O=C(O)Cc1ccc(O)c(O)c1 [3,4-Dihydroxyphenylacetic acid]",inactive: 1.13
9,CCOC(=O)[C@H](CCc1ccccc1)N[C@@H](C)C(=O)N1Cc2ccccc2C[C@H]1C(=O)O.Cl [Quinapril hydrochloride],inactive: 3.61
10,CC(C)NC[C@H](O)c1ccc(O)c(O)c1.O=C(O)[C@@H](O)[C@H](O)C(=O)O [R(-)-Isoproterenol (+)-bitartrate],inactive: -2.29
11,Cc1cn[nH]c1.Cl [4-Methylpyrazole hydrochloride],inactive: 2.19
12,Cc1cn[nH]c1.Cl,inactive: 2.06
13,CC1(C)OC2=C(C(=O)c3ccccc3C2=O)[C@H](NCc2ccccc2)[C@@H]1O,active: -4.06
14,Nc1nc(N)c2nc(CNc3ccc(C(=O)NC(CCC(=O)O)C(=O)O)cc3)cnc2n1 (stereo not drawn) [Aminopterin],inactive: 1.36
15,CCS(=O)(=O)CCn1c([N+](=O)[O-])cnc1C [Tinidazole],inactive: 2.8
16,COc1ncnc(NS(=O)(=O)c2ccc(N)cc2)c1OC [Sulfadoxine],inactive: 2.4
17,O=P(O)(O)C(O)(Cn1ccnc1)P(=O)(O)O [Zoledronic Acid],inactive: 0.0387
18,O=C(O)CC[N+](=O)[O-],inactive: 0.951
19,O=C(O)CC[N+](=O)[O-] [3-Nitropropionic acid],inactive: 3.06
20,CC(=O)Oc1ccc2c(c1)CCC1C2CC[C@@]2(C)C1CC[C@@H]2OC(C)=O (stereo partly drawn),inactive: 2.48
21,Cc1cccc(C)c1NC(=O)c1ccccc1C(=O)O,inactive: 0.912
22,COc1cc2c(cc1O)CC[C@@H]1[C@H]2CC[C@]2(C)[C@H](O)CC[C@@H]12 [2-Methoxyestradiol],inactive: 2.41
23,O=c1ccc2ccccc2o1,inactive: 2.98
24,O.O=P1(N(CCCl)CCCl)NCCCO1 (stereo not drawn) [Cyclophosphamide monohydrate],inactive: 1.25
25,COc1ccc2c(c1)OC[C@@H](Cc1ccc(OC)c(OC)c1)[C@H]2O,inactive: 1.42

row,SMILES,cell-cell fusion (z-score)
1,COc1cc(Nc2ncc(F)c(Nc3ccc4c(n3)N(COP(=O)(O)O)C(=O)C(C)(C)O4)n2)cc(OC)c1OC [Fostamatinib],inactive: 1.15
2,N[C@@H](C(=O)N[C@@H]1C(=O)N2C(C(=O)O)=C(Cl)CS[C@H]12)c1ccccc1.O [Cefaclor monohydrate],inactive: 2.68
3,CCCCC(=O)O[C@]1(C(=O)CO)[C@@H](C)C[C@H]2[C@@H]3CCC4=CC(=O)C=C[C@]4(C)[C@@]3(F)[C@@H](O)C[C@@]21C [Betamethasone 17-valerate],inactive: 1.25
4,O=C(NC(O)C(Cl)(Cl)Cl)NC(O)C(Cl)(Cl)Cl (stereo not drawn),inactive: 1.42
5,O=c1[nH]c2ccccc2n1CCCN1CCC(n2c(=O)[nH]c3cc(Cl)ccc32)CC1 [Domperidone],inactive: 4.26
6,O=c1[nH]c2ccccc2n1CCCN1CCC(n2c(=O)[nH]c3cc(Cl)ccc32)CC1,inactive: 3.49
7,CN1CC[C@@]2(C)c3cc(OC(=O)Nc4ccccc4)ccc3N(C)[C@@H]12 [Phenserine],inactive: -1.13
8,CCOc1ccccc1C(N)=O,inactive: 3.06
9,CCc1cccc(N(C)C(=N)Nc2cccc3ccccc23)c1.Cl,inactive: -0.136
10,O=C(O)c1nn(Cc2ccc(Cl)cc2Cl)c2ccccc12,inactive: 1.34
11,Br.CCCN(CCC)CCc1ccc(O)c(O)c1 [Dipropyldopamine hydrobromide],inactive: -0.657
12,CCCCCC(O)CCCC(=O)[O-].[Na+] (stereo not drawn) [5-hydroxydecanoic acid sodium],inactive: 2.16
13,CN1C(C)(C)CCCC1(C)C.O=C(O)C(O)C(O)C(=O)O,inactive: 2.42
14,CN(C)CCOC(C)(c1ccccc1)c1ccccn1.O=C(O)CCC(=O)O (stereo not drawn) [Doxylamine succinate],inactive: 2.18
15,Cc1oncc1C(=O)Nc1ccc(C(F)(F)F)cc1 [Leflunomide],inactive: 2.52
16,Cc1oncc1C(=O)Nc1ccc(C(F)(F)F)cc1,inactive: 0.768
17,CC(C)CCCC(C)NC(C)C.Cl (stereo not drawn),inactive: 3.3
18,CC(=O)O[C@@]12CO[C@@H]1C[C@H](O)[C@@]1(C)C(=O)[C@H](O)C3=C(C)[C@@H](OC(=O)[C@H](O)[C@@H](NC(=O)OC(C)(C)C)c4ccccc4)C[C@@](O)([C@@H](OC(=O)c4ccccc4)[C@H]21)C3(C)C.O.O.O [Docetaxel trihydrate],inactive: 1.4
19,O=C(CCCN1CCC(O)(c2ccc(Cl)cc2)CC1)c1ccc(F)cc1,inactive: 2.01
20,O=C(CCCN1CCC(O)(c2ccc(Cl)cc2)CC1)c1ccc(F)cc1 [Haloperidol],inactive: 2.12
21,COc1cc2c(cc1O)CC[C@@H]1[C@@H]2CC[C@]2(C)[C@@H](O)CC[C@@H]12 [2-methoxyestradiol],inactive: 3.7
22,CS(=O)(=O)O.Oc1ccc(C2CNCCc3c2cc(O)c(O)c3Cl)cc1 (stereo not drawn),inactive: -1.98
23,CS(=O)(=O)O.Oc1ccc(C2CNCCc3c2cc(O)c(O)c3Cl)cc1 (stereo not drawn) [Fenoldopam mesylate],inactive: -2.19

# Three entries drawn at random from those above:
row,SMILES,cell-cell fusion (z-score)
1,COc1cc(Nc2ncc(F)c(Nc3ccc4c(n3)N(COP(=O)(O)O)C(=O)C(C)(C)O4)n2)cc(OC)c1OC [Fostamatinib],inactive: 1.15
16,Cc1oncc1C(=O)Nc1ccc(C(F)(F)F)cc1,inactive: 0.768
22,CS(=O)(=O)O.Oc1ccc(C2CNCCc3c2cc(O)c(O)c3Cl)cc1 (stereo not drawn),inactive: -1.98
